# Hit rate of the full screen: of about 360,000 compounds, about 1,800 (0.5%) were called active. The inconclusive results got no clear call from the source; some entries with a clear call stand among them for comparison.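 How the source made its calls: active means mean inhibition of at least 75% with every replicate also reaching 75%; inconclusive means mean inhibition at least 75% but some replicate below; inactive means mean inhibition below 75%.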 Some structures have more than one record in an assay (separate samples or runs), and their calls can disagree.
# Test: reduction of Shn3 3'UTR firefly luciferase signal, primary screen, Schnurri-3 inhibitor project, cell-based, Clone20 osteoblasts, set 2 (AID 588674);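 further: 0% = median of neutral control wells and 100% = pilot-screen positive control compound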
# Details: Clone20 osteoblast Shn3 3'UTR firefly luciferase, 24 h; at 12.5 µM; hits give high values
row,SMILES,inhibition
1,CCN(CC)c1ccc(/C=C2\SC(=O)N(C(C)C)C2=O)o1,active: 96.7%
2,O=C(Cn1cnc2ccccc21)Nc1ccc(SC(F)F)cc1,inconclusive: 81.4%
3,CC(=O)OCCNc1cc(Sc2nc3ccccc3[nH]2)c2nonc2c1[N+](=O)[O-],active: 97.6%
4,CC(Oc1ccc(Cl)cc1Cl)c1nc(-c2ccc(NC(=O)c3ccncc3)cc2)no1 (stereo unspecified),inconclusive: 86.1%
5,Cc1cc(C)nc(N/N=C/C2=C(O)CC(c3ccc(F)cc3)CC2=O)n1 (stereo unspecified),inconclusive: 86.4%
6,CCN1CCN(Cc2ccc(NC(=O)c3ccc(C)c(NC(=O)C(=O)c4c[nH]c5ccccc45)c3)cc2C(F)(F)F)CC1,inconclusive: 88.6%
7,Cc1ccc2sc(N(CCCN(C)C)C(=O)c3ccc(S(=O)(=O)N(C)C)cc3)nc2c1C,inactive: -1.54%
8,CC1=NN(c2ccc(C)c(C)c2)C(=O)/C1=C\C=C\c1ccc([N+](=O)[O-])o1,active: 94.8%
9,COC1(OC)C(/C=C/c2ccc(C)cc2)C(C#N)(C#N)C1(OC)OC (stereo unspecified),inconclusive: 81.2%
10,CCOC(=O)c1c2c(n(-c3ccc(OC)cc3)c1C)C(=O)C(=O)c1ccccc1-2,active: 97.3%
11,Cc1onc(-c2c(Cl)cccc2Cl)c1C(=O)N[C@@H]1C(=O)N2[C@@H]1SC(C)(C)[C@@H]2C(=O)O,active: 91%
12,Cc1ccc(S(=O)(=O)N2CCC3(CC2)OCCN3S(=O)(=O)c2c(C)cc(C)cc2C)cc1,inconclusive: 85.5%
13,Cc1nc2nc(C)n(CCN3CCOCC3)c(=O)c2c(-c2cccc([N+](=O)[O-])c2)c1C(=O)CCCCCCCCCCN1CCC(c2ccccc2)(c2ccccc2)CC1,inconclusive: 90.3%
14,Cc1ccc(C(=O)N2CCN(C)CC2)cc1S(=O)(=O)N1CCCCCC1,inconclusive: 86.6%
15,c1ccc(Nc2nc(NCC3CCCO3)c3ccccc3n2)cc1 (stereo unspecified),inconclusive: 85.4%
16,COc1cccc(/C=N/Nc2ncc(C(F)(F)F)cc2Cl)c1O,active: 89.9%
17,O=C(NCc1cccc(Cl)c1)c1cc(COc2ccc3ncccc3c2)on1,inconclusive: 86.3%
18,Cc1noc(C)c1C(=O)Nc1ccc(N(C)C)cc1,inactive: -1.14%
19,COc1cc(NC(=O)NCc2ccco2)ccc1-c1ccc(NC(=O)NCc2ccco2)cc1OC,active: 82.7%
20,O=C1C=CC(=O)c2c(O)c(N3CCN(CCO)CC3)c(Cl)c(O)c21,active: 98.8%
21,CCCCCCC[N+](CC)(CC)CCCCc1ccc(Cl)cc1,inconclusive: 87.4%

row,SMILES,inhibition
1,CN(c1ccccc1)S(=O)(=O)c1cccc(NC(=O)c2nn(C)c(=O)c3ccccc23)c1,inactive: 53.5%
2,Cc1c(CCCl)c(Cl)n2c(nc3ccccc32)c1C#N,active: 98.7%
3,Cn1c(CN2CCCC2)nc2cc(NS(=O)(=O)c3ccc(Cl)cc3)ccc21,inactive: 18.5%
4,CC(Oc1cccc(Br)c1)C(=O)NNC(=O)c1ccccn1 (stereo unspecified),inconclusive: 86.8%
5,Cn1c(/C=C/c2ccc([N+](=O)[O-])o2)nc2ccccc2c1=O,active: 96.5%
6,CC(=O)Nc1ccc(NC(=O)COC(=O)c2c3c(nc4ccccc24)CCN(Cc2ccccc2)C3)cc1,inactive: 23.7%
7,CC1CCCN(C(=O)CN2C(=O)NC(C)(c3ccc4ccccc4c3)C2=O)C1 (stereo unspecified),inactive: 8.99%
8,CC1Cc2ccccc2N1Cc1cccc(S(=O)(=O)N(C)C)c1 (stereo unspecified),inconclusive: 85.5%
9,Cn1c(/C=C/c2ccc(Cl)cc2Cl)c([N+](=O)[O-])c(=O)n(C)c1=O,inconclusive: 85.2%
10,O=C(NC(Nc1nc2ccc([N+](=O)[O-])cc2s1)(C(F)(F)F)C(F)(F)F)c1ccccc1,inconclusive: 82.6%
11,Cc1cc(N2CCCC2=O)cc(C)c1S(=O)(=O)NCCOc1ccc(C(C)(C)C)cc1,inconclusive: 85.1%
12,CC(C)Oc1ccc(S(=O)(=O)N2CCCCC2)cc1NC(=O)CN1CCCC1c1cccs1 (stereo unspecified),inconclusive: 85.3%
13,Cc1nnc(NC(=O)c2sc3nc(-c4cccs4)cc(C(F)(F)F)c3c2N)s1,inactive: 19.8%
14,COc1cc(CC(=O)Nc2nc(-c3ccc(F)c(F)c3)cs2)cc(OC)c1OC,inconclusive: 85.2%
15,Cc1cccc2sc(NNC(=O)c3ccc(S(=O)(=O)N4CC(C)CC(C)C4)cc3)nc12 (stereo unspecified),inconclusive: 85.9%
16,CN(Cc1nccs1)C(=O)c1cc(COc2cccc3cnccc23)on1,inconclusive: 87.6%
17,CCSc1nc(-c2ccc(OC)cc2)cc(-c2ccccc2)c1C#N,inactive: 51%
18,CCc1ccc(S(=O)(=O)N2CCN(C(=O)c3cccnc3)CC2)cc1,inactive: 13%
19,CN(Cc1ccc(Cl)cc1Cl)C(=O)C1CSC2(C)CCC(=O)N12 (stereo unspecified),inactive: 3.67%
20,COc1cc(OC)cc(-c2nnc(NC(=O)CCS(=O)(=O)c3ccccc3)o2)c1,inactive: -2.14%
21,CCC(NS(=O)(=O)c1c(C)[nH]c(=O)[nH]c1=O)C12CC3CC(CC(C3)C1)C2 (stereo unspecified),inactive: 19.8%

# A portion of the results above, for reference:
row,SMILES,inhibition
17,O=C(NCc1cccc(Cl)c1)c1cc(COc2ccc3ncccc3c2)on1,inconclusive: 86.3%
18,Cc1noc(C)c1C(=O)Nc1ccc(N(C)C)cc1,inactive: -1.14%
19,COc1cc(NC(=O)NCc2ccco2)ccc1-c1ccc(NC(=O)NCc2ccco2)cc1OC,active: 82.7%
20,O=C1C=CC(=O)c2c(O)c(N3CCN(CCO)CC3)c(Cl)c(O)c21,active: 98.8%
21,CCCCCCC[N+](CC)(CC)CCCCc1ccc(Cl)cc1,inconclusive: 87.4%
1,CN(c1ccccc1)S(=O)(=O)c1cccc(NC(=O)c2nn(C)c(=O)c3ccccc23)c1,inactive: 53.5%
2,Cc1c(CCCl)c(Cl)n2c(nc3ccccc32)c1C#N,active: 98.7%
3,Cn1c(CN2CCCC2)nc2cc(NS(=O)(=O)c3ccc(Cl)cc3)ccc21,inactive: 18.5%
4,CC(Oc1cccc(Br)c1)C(=O)NNC(=O)c1ccccn1 (stereo unspecified),inconclusive: 86.8%
5,Cn1c(/C=C/c2ccc([N+](=O)[O-])o2)nc2ccccc2c1=O,active: 96.5%
6,CC(=O)Nc1ccc(NC(=O)COC(=O)c2c3c(nc4ccccc24)CCN(Cc2ccccc2)C3)cc1,inactive: 23.7%
7,CC1CCCN(C(=O)CN2C(=O)NC(C)(c3ccc4ccccc4c3)C2=O)C1 (stereo unspecified),inactive: 8.99%
8,CC1Cc2ccccc2N1Cc1cccc(S(=O)(=O)N(C)C)c1 (stereo unspecified),inconclusive: 85.5%
9,Cn1c(/C=C/c2ccc(Cl)cc2Cl)c([N+](=O)[O-])c(=O)n(C)c1=O,inconclusive: 85.2%
10,O=C(NC(Nc1nc2ccc([N+](=O)[O-])cc2s1)(C(F)(F)F)C(F)(F)F)c1ccccc1,inconclusive: 82.6%
11,Cc1cc(N2CCCC2=O)cc(C)c1S(=O)(=O)NCCOc1ccc(C(C)(C)C)cc1,inconclusive: 85.1%
12,CC(C)Oc1ccc(S(=O)(=O)N2CCCCC2)cc1NC(=O)CN1CCCC1c1cccs1 (stereo unspecified),inconclusive: 85.3%
13,Cc1nnc(NC(=O)c2sc3nc(-c4cccs4)cc(C(F)(F)F)c3c2N)s1,inactive: 19.8%
14,COc1cc(CC(=O)Nc2nc(-c3ccc(F)c(F)c3)cs2)cc(OC)c1OC,inconclusive: 85.2%
15,Cc1cccc2sc(NNC(=O)c3ccc(S(=O)(=O)N4CC(C)CC(C)C4)cc3)nc12 (stereo unspecified),inconclusive: 85.9%
16,CN(Cc1nccs1)C(=O)c1cc(COc2cccc3cnccc23)on1,inconclusive: 87.6%
17,CCSc1nc(-c2ccc(OC)cc2)cc(-c2ccccc2)c1C#N,inactive: 51%
18,CCc1ccc(S(=O)(=O)N2CCN(C(=O)c3cccnc3)CC2)cc1,inactive: 13%

# The results go on.

row,SMILES,inhibition
1,COc1cc(OC)c(OC)cc1/C=C1\CC(C)C/C(=C\c2cc(OC)c(OC)cc2OC)C1=O (stereo unspecified),active: 93.6%
2,CCC(=O)NC(c1ccc(OC)c(OC)c1)c1cc(Cl)c2cccnc2c1O (stereo unspecified),inconclusive: 87.1%
3,C[C@@H]1CN([C@@H](C)CO)C(=O)c2cc(NC(=O)Nc3ccc(F)cc3)ccc2O[C@@H]1CN(C)Cc1ccc(Oc2ccccc2)cc1,inconclusive: 86.2%
4,Fc1ccc(NC(=S)N2CCCN(c3ccc(C(F)(F)F)cn3)CC2)c(F)c1,active: 89.4%
5,CCOC(=O)c1ccc(S(=O)(=O)Nc2ccc(N3CCOCC3)cc2)cc1,inactive: -18.9%
6,C1CCC(C(CC2CCCCN2)C2CCCCC2)CC1 (stereo unspecified),inconclusive: 86.2%
7,CC(=O)Oc1cc(O)c2c(=O)c(OC(C)=O)c(-c3ccc(OC(C)=O)c(OC(C)=O)c3)oc2c1,inactive: -36.4%
8,CC(=O)c1ccc(N2CCC(c3cc(-c4ccc(Cl)cc4)n[nH]3)CC2)c([N+](=O)[O-])c1,inconclusive: 85.7%
9,C(C#CCCCCCCCCC[n+]1ccccc1)#CCCCCCCCCC[n+]1ccccc1,inconclusive: 86.1%
10,COc1cc(N(C)C)ccc1C=c1c2ccccc2n2c1cc(-c1ccccc1)[n+]2C,active: 94.6%
11,Cc1ccc(NC(=O)C(=Cc2ccc(C(=O)O)cc2)C(=O)Nc2ccc(C)cc2C)c(C)c1,inconclusive: 85.9%
12,Cc1c(NC(=O)C(C)OC(=O)CNC(=O)c2ccc(C(C)(C)C)cc2)c(=O)n(-c2ccccc2)n1C (stereo unspecified),inactive: -30.5%
13,Cc1ccc(S(=O)(=O)NCCc2cc3ccc(C)cc3[nH]c2=O)cc1,inconclusive: 85.2%
14,CN1CCN(c2ccc(-c3ccc4ccccc4n3)cc2)CC1,inconclusive: 85.4%
15,COc1ccc(C(=O)/C=C/Nc2ccc(S(=O)(=O)Nc3cccc(C(C)=O)c3)cc2)cc1,inconclusive: 85.3%
16,C(=C\c1ccccc1)/CN1CCN(c2ncnc3c2oc2ccccc23)CC1,inconclusive: 80.2%
17,O=C(CCN1CCc2ccccc2C(O)(c2ccccc2)C1)c1ccc2c(c1)OCCO2 (stereo unspecified),inconclusive: 89.1%
18,Cc1ccc(-c2nn(C(C)(C)C)c3ncnc(N)c23)cc1,inconclusive: 85.7%
19,COc1ccccc1C(NC(C)=O)c1cc(Cl)c2cccnc2c1O (stereo unspecified),inconclusive: 85.4%
20,Cc1cc2c(cc(C(=O)N3CCC(C(=O)NC4CCCC4)CC3)n2Cc2c(F)cccc2Cl)o1,inconclusive: 86.6%
21,Cc1oc(-c2ccc(Cl)cc2)nc1CS(=O)CC(=O)NCCCN1CCN(Cc2ccccc2)CC1 (stereo unspecified),inconclusive: 86.8%

row,SMILES,inhibition
1,C[n+]1c2cc(N)ccc2cc2ccc(N)cc21,inconclusive: 85.5%
2,CCOC(=O)N1CCN(C(=O)c2ccc(S(=O)(=O)Nc3ccc(C)cc3)cc2)CC1,inconclusive: 81.2%
3,O=C(Nc1nc(NC(=O)c2ccco2)n(-c2ccccc2)n1)c1ccccc1,inconclusive: 82.1%
4,Cc1cccc(C)c1NC(=O)CCCSc1nc2ccccc2s1,inactive: 1.46%
5,CC1=NNC(=O)/C1=C\c1cn(-c2ccccc2)nc1-c1ccccc1,active: 97.3%
6,COc1nc(=O)n(C2OC(CO)C(O)C2O)cc1C (stereo unspecified),inconclusive: 80.1%
7,COc1ccc(NC(=O)/C(Cl)=C(/Cl)S(=O)(=O)Cc2ccc(C)cc2)cn1,inconclusive: 87.3%
8,Cc1c(N/N=C(\C#N)C(=O)c2ccccc2)c(=O)n(-c2ccccc2)n1C,active: 89.4%
9,CC(C)c1ccccc1NC(=O)Nc1nc(C(N)Cc2ccc(C(F)(F)F)cc2)cs1 (stereo unspecified),active: 98.3%
10,CCCCCCCCCCOC(=O)Cn1c(COc2ccccc2)[n+](C)c2ccccc21,inconclusive: 89.8%
11,Oc1[nH]c2ccc(Br)cc2c1N=NC(=S)N1CCOCC1,active: 97.1%
12,CN1CCN(c2ccc(NC(=O)c3ccc([N+](=O)[O-])o3)cc2Cl)CC1,active: 89.7%
13,CC1=NOC(=O)/C1=C/c1ccc(-c2ccc(Cl)cc2)o1,inconclusive: 82.8%
14,Cc1ccc(-n2c(Cc3cccc4ccccc34)n[nH]c2=S)c(C)c1,inactive: -11.7%
15,Cc1ccccc1NC(=O)Cc1nc(COC(=O)c2ccc(S(C)(=O)=O)c([N+](=O)[O-])c2)cs1,inconclusive: 86.4%
16,Cc1ccc(NC(=O)CN(C)C(=O)COc2cc(F)ccc2[N+](=O)[O-])cc1,inconclusive: 85.3%
17,Cc1ccc(Cl)c(NC(=O)COC(=O)c2nn(-c3ccccc3)cc2O)c1Cl,inactive: -6.2%
18,CC1CCC(C(C)C)C(OC(=O)Cn2c(-c3ccccc3)[n+](C)c3ccccc32)C1 (stereo unspecified),inconclusive: 86.3%

# From PubChem BioAssay AID588674 (Broad Institute, 2011)
